# Test results taken from patent publication US9511080B2, “Okadaella gastrococcus and cancer” (Okada Medical Services Pty Ltd, priority 2009, dated 2016).
# At least one compound was matched to its structure with a doubt left.
# What was measured:
# precancerous lesions = settings: after Hp eradication therapy (Zhang et al, 2009); cited from earlier work
# [1] = tested on: Okadaella gastrococcus (Og) isolates; assay: In vitro antibiotic sensitivity of Og (E-tests and diffusion disc tests); format: cell-based; settings: 25 Og isolates from gastric mucosal biopsy specimens
# Procedure: Twenty-five Og isolates were obtained from gastric mucosal biopsy specimens. E-tests and diffusion disc tests were performed under microaerophilic condition (Oxygen 5%, CO2 10%, and Nitrogen 85%) utilizing. 5% horse blood agar, except metronidazole which was tested under anaerobic condition. Antibiotic sensitivity was read 72 hours after incubation. Randomly selected isolates were also examined under TEM to confirm the ultrastructure of Og. Results: Og was sensitive to various antibiotics, in particular to the penicillins, the cephalosporins, the quinolones, and chloramphenicol.
Compound,Effect on precancerous lesions (precancerous lesions),Og can be treated using antibiotic (in vitro assays) [1]
Cc1ccc(-c2cc(C(F)(F)F)nn2-c2ccc(S(N)(=O)=O)cc2)cc1 [Celecoxib],significant improvement in precancerous lesions,
COc1c(N2C[C@@H]3CCCN[C@@H]3C2)c(F)cc2c(=O)c(C(=O)O)cn(C3CC3)c12 [moxifloxacin],,can be treated
